For at least one compound, name, drawing or mass did not settle the structure.
Test system: HE cells
Experiment: confocal imaging: filipin III and histone acetylation staining
Format: cell-based, human
Conditions: DCA 3 mM, 2 days
Procedure: For TMRE staining, on day 3 of subculture, half of the culture medium was removed and cells were stained with 20 nM TMRE (Thermo Fisher Scientific, T669) by direct addition into the culture medium of a 2× concentrated solution. After a 20-minute incubation at 37° C., wells were carefully washed with PBS and fresh HE medium was added. During acquisition, cells were kept in a humidified incubator at 37° C., 5% CO2, 20% O2. For immunocytochemistry, subculture day 2 HE cells (plated on coverslips) were washed twice in PBS, fixed with 4% PFA for 15 minutes at RT and washed three times with PBS. For filipin staining, fixed cells were incubated with 100 μg/ml filipin III (Sigma-Aldrich, F4767) for 1 hour, washed three times with PBS and rinsed with distilled water before mounting with PVA/DABCO. […] Intensity quantification was performed using the Fiji software as follows. For TMRE, using the brightfield channel, ROIs were selected for 5 spindle-shaped and 5 round cells (randomly chosen) and average intensity for each ROI was calculated in a summatory Z-stack of the TMRE channel. For filipin and acetylation, the summatory Z-stack for the filipin channel was obtained and average intensity calculated. A total of 2-3 independent experiments with 2-3 replicate wells were quantified. […]

Q: For `O=C(O)C(Cl)Cl` [DCA, dichloroacetate], which “global acetylation of H3K9 or H4” value is on record?
A: Its value is “no changes”.
